One substance from article PMC3758340 can be followed below.

By UniProt entry, the sequences of proteins in these tests, tags left out. Where a name states a change or a piece, a line headed by the entry shows the natural chain unless it says otherwise. Residues count along the entry.
UniProt P02454: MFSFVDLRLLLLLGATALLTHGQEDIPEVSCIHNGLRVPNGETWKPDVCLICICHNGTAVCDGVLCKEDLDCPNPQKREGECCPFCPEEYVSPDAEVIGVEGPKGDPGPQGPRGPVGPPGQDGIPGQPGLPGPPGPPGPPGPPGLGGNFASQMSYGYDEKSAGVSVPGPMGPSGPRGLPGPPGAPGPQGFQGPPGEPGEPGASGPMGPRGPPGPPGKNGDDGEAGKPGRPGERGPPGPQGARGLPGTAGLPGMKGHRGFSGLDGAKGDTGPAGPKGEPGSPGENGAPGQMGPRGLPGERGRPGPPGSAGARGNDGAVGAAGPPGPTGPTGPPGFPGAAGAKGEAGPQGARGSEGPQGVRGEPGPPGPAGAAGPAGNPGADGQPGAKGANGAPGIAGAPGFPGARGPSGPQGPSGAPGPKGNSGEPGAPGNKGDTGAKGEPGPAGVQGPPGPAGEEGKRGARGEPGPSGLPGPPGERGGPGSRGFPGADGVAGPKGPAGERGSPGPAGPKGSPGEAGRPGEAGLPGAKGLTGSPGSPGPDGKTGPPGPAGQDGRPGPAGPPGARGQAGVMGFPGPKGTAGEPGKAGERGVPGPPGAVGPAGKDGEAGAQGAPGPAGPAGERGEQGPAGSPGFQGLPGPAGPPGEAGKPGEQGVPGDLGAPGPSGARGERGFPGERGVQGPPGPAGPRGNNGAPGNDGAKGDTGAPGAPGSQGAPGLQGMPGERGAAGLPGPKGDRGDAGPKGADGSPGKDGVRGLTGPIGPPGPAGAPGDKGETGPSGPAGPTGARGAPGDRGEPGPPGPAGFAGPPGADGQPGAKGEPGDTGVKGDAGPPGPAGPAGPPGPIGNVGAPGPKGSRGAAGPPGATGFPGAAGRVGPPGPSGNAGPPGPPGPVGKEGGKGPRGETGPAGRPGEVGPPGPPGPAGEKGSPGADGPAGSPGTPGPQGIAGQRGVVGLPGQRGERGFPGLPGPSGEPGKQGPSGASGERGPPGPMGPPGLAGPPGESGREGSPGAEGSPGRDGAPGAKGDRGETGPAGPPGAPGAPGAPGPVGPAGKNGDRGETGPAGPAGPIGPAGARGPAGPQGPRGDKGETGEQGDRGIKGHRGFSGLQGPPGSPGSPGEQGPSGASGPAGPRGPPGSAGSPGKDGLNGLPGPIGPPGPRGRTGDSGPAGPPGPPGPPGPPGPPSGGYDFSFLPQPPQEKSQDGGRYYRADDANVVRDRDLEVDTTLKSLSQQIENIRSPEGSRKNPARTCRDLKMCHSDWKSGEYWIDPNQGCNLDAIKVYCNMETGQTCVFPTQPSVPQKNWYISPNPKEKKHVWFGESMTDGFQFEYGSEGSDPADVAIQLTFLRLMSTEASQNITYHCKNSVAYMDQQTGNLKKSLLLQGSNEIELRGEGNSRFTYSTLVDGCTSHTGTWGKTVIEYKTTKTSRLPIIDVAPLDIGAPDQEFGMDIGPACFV
UniProt P02466: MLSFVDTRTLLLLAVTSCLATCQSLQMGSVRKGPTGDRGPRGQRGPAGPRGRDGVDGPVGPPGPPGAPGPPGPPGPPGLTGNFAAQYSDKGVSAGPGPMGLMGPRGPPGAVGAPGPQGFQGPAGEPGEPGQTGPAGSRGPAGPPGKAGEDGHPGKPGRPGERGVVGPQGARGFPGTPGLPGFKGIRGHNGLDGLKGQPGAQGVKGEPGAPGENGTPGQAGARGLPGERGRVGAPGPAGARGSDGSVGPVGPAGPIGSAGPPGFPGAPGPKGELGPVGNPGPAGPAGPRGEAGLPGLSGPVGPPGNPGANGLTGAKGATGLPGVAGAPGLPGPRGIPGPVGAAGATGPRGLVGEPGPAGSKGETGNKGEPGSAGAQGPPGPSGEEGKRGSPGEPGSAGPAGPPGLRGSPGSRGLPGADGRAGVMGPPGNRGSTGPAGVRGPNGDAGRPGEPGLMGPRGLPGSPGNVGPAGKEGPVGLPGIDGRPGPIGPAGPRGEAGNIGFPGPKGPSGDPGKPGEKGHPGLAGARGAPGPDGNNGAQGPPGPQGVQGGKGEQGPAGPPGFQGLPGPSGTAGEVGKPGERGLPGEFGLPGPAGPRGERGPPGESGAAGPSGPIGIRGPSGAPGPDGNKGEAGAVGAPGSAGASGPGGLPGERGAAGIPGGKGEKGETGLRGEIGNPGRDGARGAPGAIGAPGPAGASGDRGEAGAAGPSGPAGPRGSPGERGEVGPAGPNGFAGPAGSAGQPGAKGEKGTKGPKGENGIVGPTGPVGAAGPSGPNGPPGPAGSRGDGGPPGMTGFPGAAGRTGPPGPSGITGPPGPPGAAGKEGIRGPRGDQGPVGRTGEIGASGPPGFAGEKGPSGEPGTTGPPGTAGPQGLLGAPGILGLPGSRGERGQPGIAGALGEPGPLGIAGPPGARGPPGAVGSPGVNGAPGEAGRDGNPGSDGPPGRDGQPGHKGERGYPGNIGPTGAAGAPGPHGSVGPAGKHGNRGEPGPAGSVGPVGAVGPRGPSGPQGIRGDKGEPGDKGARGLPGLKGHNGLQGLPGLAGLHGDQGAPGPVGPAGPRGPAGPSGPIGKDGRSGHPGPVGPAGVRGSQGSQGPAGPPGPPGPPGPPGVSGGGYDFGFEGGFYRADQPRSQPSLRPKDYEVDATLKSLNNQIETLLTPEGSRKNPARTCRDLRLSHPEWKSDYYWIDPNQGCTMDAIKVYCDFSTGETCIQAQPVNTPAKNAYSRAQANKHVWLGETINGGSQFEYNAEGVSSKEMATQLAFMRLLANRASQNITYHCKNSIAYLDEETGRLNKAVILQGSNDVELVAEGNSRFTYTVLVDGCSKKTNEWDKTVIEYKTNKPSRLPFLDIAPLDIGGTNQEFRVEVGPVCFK
UniProt P21793, residues 31-360: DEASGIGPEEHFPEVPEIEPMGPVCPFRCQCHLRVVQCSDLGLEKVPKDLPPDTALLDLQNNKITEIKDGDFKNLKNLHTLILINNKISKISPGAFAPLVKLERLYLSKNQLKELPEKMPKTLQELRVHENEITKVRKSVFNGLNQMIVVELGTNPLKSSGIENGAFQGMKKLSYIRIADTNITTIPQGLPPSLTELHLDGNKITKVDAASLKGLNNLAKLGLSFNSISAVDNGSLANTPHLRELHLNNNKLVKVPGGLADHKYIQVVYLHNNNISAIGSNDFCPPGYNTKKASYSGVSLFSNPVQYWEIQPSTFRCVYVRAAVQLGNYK

The target in the test is rat tail type I collagen (rat) (UniProt P02454+P02466). Put plainly: transmission electron microscopy with cupromeronic blue staining; collagen lattices made from acid-soluble rat tail type I collagen (1 mg/ml) with addition of decorin; GAG chains of decorin stained by cupromeronic blue; ultrathin sections; both purified.

No constants are given. Whether binding was seen depends on the method and setting. Some results given as binding are weak or reduced against the parent protein; the word gives no strength.

For “purified bovine decorin (from UniProt P21793 31-360)”, the binding entry was “binds”.
